The list shows a part of the results.

Holding throughout (assay): glycan array binding signal (z-score within array); higher = stronger binding
Holding throughout (settings): glycan notation: IUPAC condensed, linker removed

One assay addresses GlcNAc(b1-3)Gal(b1-4)Glc. In outline: (§1)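 Arrays were curated from the Consortium for Functional Glycomics database, 3228 in total, and kept only where the protein sequence was available. Binding is expressed as a within-array Z-score. This score was averaged across arrays of the same protein sequence at different concentrations or buffers and across linkers, and negative values can be read as non-binding.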

In assay [1] the target is GlcNAc(b1-3)Gal(b1-4)GlcNAc. In outline:
as §1

Assay [2] addresses GlcNAc(b1-3)Gal(b1-4)GlcNAc(b1-2)Man(a1-3)[GlcNAc(b1-3)Gal(b1-4)GlcNAc(b1-2)Man(a1-6)]Man(b1-4)GlcNAc(b1-4)GlcNAc. In a few lines:
as §1

For assay [3], the target named is GlcNAc(b1-3)Gal(b1-4)GlcNAc(b1-2)Man(a1-3)[GlcNAc(b1-3)Gal(b1-4)GlcNAc(b1-2)Man(a1-6)]Man(b1-4)GlcNAc(b1-4)[Fuc(a1-6)]GlcNAc. In outline: as §1
In assay [4] the target is GlcNAc(b1-3)Gal(b1-4)GlcNAc(b1-2)[GlcNAc(b1-3)Gal(b1-4)GlcNAc(b1-6)]Man(a1-6)[GlcNAc(b1-3)Gal(b1-4)GlcNAc(b1-2)Man(a1-3)]Man(b1-4)GlcNAc(b1-4)GlcNAc. In a few lines:
as §1

The target in assay [5] is GlcNAc(b1-3)Gal(b1-4)GlcNAc(b1-3)Gal(b1-4)GlcNAc. In outline:
as §1

The target of assay [6] is GlcNAc(b1-3)Gal(b1-4)GlcNAc(b1-3)Gal(b1-4)GlcNAc(b1-2)Man(a1-3)[GlcNAc(b1-3)Gal(b1-4)GlcNAc(b1-3)Gal(b1-4)GlcNAc(b1-2)Man(a1-6)]Man(b1-4)GlcNAc(b1-4)GlcNAc. In a few lines:
as §1

Assay [7] has as its target GlcNAc(b1-3)Gal(b1-4)GlcNAc(b1-3)Gal(b1-4)GlcNAc(b1-2)Man(a1-3)[GlcNAc(b1-3)Gal(b1-4)GlcNAc(b1-3)Gal(b1-4)GlcNAc(b1-2)Man(a1-6)]Man(b1-4)GlcNAc(b1-4)[Fuc(a1-6)]GlcNAc. In outline: as §1
Assay [8] has as its target GlcNAc(b1-3)Gal(b1-4)GlcNAc(b1-3)Gal(b1-4)GlcNAc(b1-2)[GlcNAc(b1-3)Gal(b1-4)GlcNAc(b1-3)Gal(b1-4)GlcNAc(b1-6)]Man(a1-6)[GlcNAc(b1-3)Gal(b1-4)GlcNAc(b1-3)Gal(b1-4)GlcNAc(b1-2)Man(a1-3)]Man(b1-4)GlcNAc(b1-4)[Fuc(a1-6)]GlcNAc. In a few lines: as §1
The target in assay [9] is GlcNAc(b1-3)Gal(b1-4)GlcNAc(b1-3)Gal(b1-4)GlcNAc(b1-3)Gal(b1-4)GlcNAc(b1-2)Man(a1-3)[GlcNAc(b1-3)Gal(b1-4)GlcNAc(b1-3)Gal(b1-4)GlcNAc(b1-3)Gal(b1-4)GlcNAc(b1-2)Man(a1-6)]Man(b1-4)GlcNAc(b1-4)GlcNAc. In outline:
as §1

Assay [10] deals with GlcNAc(b1-3)Gal(b1-4)GlcNAc(b1-3)Gal(b1-4)GlcNAc(b1-3)Gal(b1-4)GlcNAc(b1-2)Man(a1-3)[GlcNAc(b1-3)Gal(b1-4)GlcNAc(b1-3)Gal(b1-4)GlcNAc(b1-3)Gal(b1-4)GlcNAc(b1-2)Man(a1-6)]Man(b1-4)GlcNAc(b1-4)[Fuc(a1-6)]GlcNAc. In a few lines:
as §1

Assay [11] concerns the target GlcNAc(b1-3)Gal(b1-4)GlcNAc(b1-3)Gal(b1-4)GlcNAc(b1-3)Gal(b1-4)GlcNAc(b1-2)[GlcNAc(b1-3)Gal(b1-4)GlcNAc(b1-3)Gal(b1-4)GlcNAc(b1-3)Gal(b1-4)GlcNAc(b1-6)]Man(a1-6)[GlcNAc(b1-3)Gal(b1-4)GlcNAc(b1-3)Gal(b1-4)GlcNAc(b1-3)Gal(b1-4)GlcNAc(b1-2)Man(a1-3)]Man(b1-4)GlcNAc(b1-4)[Fuc(a1-6)]GlcNAc. In a few lines: as §1
Assay [12] addresses GlcNAc(b1-3)Gal(b1-4)GlcNAc(b1-3)Gal(b1-4)GlcNAc(b1-3)Gal(b1-4)GlcNAc(b1-3)Gal(b1-4)GlcNAc(b1-2)Man(a1-3)[GlcNAc(b1-3)Gal(b1-4)GlcNAc(b1-3)Gal(b1-4)GlcNAc(b1-3)Gal(b1-4)GlcNAc(b1-3)Gal(b1-4)GlcNAc(b1-2)Man(a1-6)]Man(b1-4)GlcNAc(b1-4)GlcNAc. In outline: as §1
The target of assay [13] is GlcNAc(b1-3)Gal(b1-4)GlcNAc(b1-3)Gal(b1-4)GlcNAc(b1-3)Gal(b1-4)GlcNAc(b1-3)Gal(b1-4)GlcNAc(b1-2)Man(a1-3)[GlcNAc(b1-3)Gal(b1-4)GlcNAc(b1-3)Gal(b1-4)GlcNAc(b1-3)Gal(b1-4)GlcNAc(b1-3)Gal(b1-4)GlcNAc(b1-2)Man(a1-6)]Man(b1-4)GlcNAc(b1-4)[Fuc(a1-6)]GlcNAc. In outline: as §1
The target of assay [14] is GlcNAc(b1-3)Gal(b1-4)GlcNAc(b1-3)Gal(b1-4)GlcNAc(b1-3)Gal(b1-4)GlcNAc(b1-3)Gal(b1-4)GlcNAc(b1-2)[GlcNAc(b1-3)Gal(b1-4)GlcNAc(b1-3)Gal(b1-4)GlcNAc(b1-3)Gal(b1-4)GlcNAc(b1-3)Gal(b1-4)GlcNAc(b1-6)]Man(a1-6)[GlcNAc(b1-3)Gal(b1-4)GlcNAc(b1-3)Gal(b1-4)GlcNAc(b1-3)Gal(b1-4)GlcNAc(b1-3)Gal(b1-4)GlcNAc(b1-2)Man(a1-3)]Man(b1-4)GlcNAc(b1-4)[Fuc(a1-6)]GlcNAc. In outline:
as §1

Assay [15] deals with GlcNAc(b1-3)Gal(b1-4)GlcNAc(b1-3)Gal(b1-4)GlcNAc(b1-3)GalNAc. In a few lines:
as §1

Assay [16] concerns the target GlcNAc(b1-3)Gal(b1-4)GlcNAc(b1-3)GalNAc. In outline: as §1
Assay [17] concerns the target GlcNAc(b1-3)Gal(b1-4)GlcNAc(b1-3)[GlcNAc(b1-3)Gal(b1-4)GlcNAc(b1-3)]GalNAc. In outline:
as §1

Assay [18] addresses GlcNAc(b1-3)Gal(b1-4)GlcNAc(b1-6)[Gal(b1-3)]GalNAc. In a few lines: as §1
The target in assay [19] is GlcNAc(b1-3)Gal(b1-4)GlcNAc(b1-6)[GlcNAc(b1-3)Gal(b1-3)]GalNAc. In a few lines: as §1
The target in assay [20] is GlcNAc(b1-3)Gal(b1-4)GlcNAc(b1-6)[GlcNAc(b1-3)]Gal(b1-4)GlcNAc. In a few lines:
as §1

A further assay deals with GlcNAc(b1-3)GalNAc. In outline:
as §1

B1: YghJ (Escherichia coli), E3PJ90 (protein)
chain: MNKKFKYKKSLLAAILSATLLAGCDGGGSGSSSDTPPVDSGTGSLPEVKPDPTPNPEPTPEPTPDPEPTPEPIPDPEPTPEPEPEPVPTKTGYLTLGGSQRVTGATCNGESSDGFTFKPGEDVTCVAGNTTIATFNTQSEAARSLRAVEKVSFSLEDAQELAGSDDKKSNAVSLVTSSNSCPANTEQVCLTFSSVIESKRFDSLYKQIDLAPEEFKKLVNEEVENNAATDKAPSTHTSPVVPVTTPGTKPDLNASFVSANAEQFYQYQPTEIILSEGRLVDSQGYGVAGVNYYTNSGRGVTGENGEFSFSWGEAISFGIDTFELGSVRGNKSTIALTELGDEVRGANIDQLIHRYSTTGQNNTRVVPDDVRKVFAEYPNVINEIINLSLSNGATLGEGEQVVNLPNEFIEQFNTGQAKEIDTAICAKTDGCNEARWFSLTTRNVNDGQIQGVINKLWGVDTNYKSVSKFHVFHDSTNFYGSTGNARGQAVVNISNAAFPILMARNDKNYWLAFGEKRAWDKNELAYITEAPSIVRPENVTRETASFNLPFISLGQVGDGKLMVIGNPHYNSILRCPNGYSWNGGVNKDGQCTLNSDPDDMKNFMENVLRYLSNDRWLPDAKSSMTVGTNLETVYFKKHGQVLGNSAPFAFHKDFTGITVKPMTSYGNLNPDEVPLLILNGFEYVTQWGSDPYSIPLRADTSKPKLTQQDVTDLIAYMNKGGSVLIMENVMSNLKEESASGFVRLLDAAGLSMALNKSVVNNDPQGYPDRVRQRRSTPIWVYERYPAVDGKPPYTIDDTTKEVIWKYQQENKPDDKPKLEVASWQEEVEGKQVTQFAFIDEADHKTPESLAAAKQRILDAFPGLEVCKDSDYHYEVNCLEYRPGTDVPVTGGMYVPQYTQLDLSADTAKAMLQAADLGTNIQRLYQHELYFRTNGRQGERLNSVDLERLYQNMSVWLWNETKYRYEEGKEDELGFKTFTEFLNCYTNNAYVGTQCSAELKKSLIDNKMIYGEESSKAGMMNPSYPLNYMEKPLTRLMLGRSWWDLNIKVDVEKYPGVVNTNGETVTQNINLYSAPTKWFAGNMQSTGLWAPAQQEVSIESKSTVPVTVTVALADDLTGREKHEVSLNRPPRVTKTYDLKANDKVTFKVPYGGLIYIKGDSKEVQSADFTFTGVVKAPFYKDGKWQHDLNSPAPLGELESASFVYTTPKKNLNASNYTGGLEQFANDLDTFASSMNDFYGRDSEDGKHRMFTYKNLPGHKHRFANDVQISIGDAHSGYPVMNSSFSPNSTTLPTTPLNDWLIWHEVGHNAAETPLTVPGATEVANNVLALYMQDRYLGKMNRVADDITVAPEYLEESNGQAWARGGAGDRLLMYAQLKEWAEKNFDIKKWYPDGTPLPEFYSEREGMKGWNLFQLMHRKARGDEVSNDKFGGKNYCAESNGNAADTLMLCASWVAQTDLSEFFKKWNPGANAYQLPGASEMSFEGGVSQSAYNTLASLDLPKPEQGPETINQVTEHKMSAE
B1: the “glycan array binding signal (z-score)” value was -0.645 with GlcNAc(b1-3)Gal(b1-4)Glc; -0.102 in [1]; -0.98 in assay [2]; -1.21 in assay [3]; -1.19 in assay [4]; -1.44 in assay [5]. In addition, the “glycan array binding signal (z-score)” value is 0.4 in assay [6]; 0.066 in assay [7]; 1.17 in assay [8]; -0.344 in [9]; 0.253 in [10]; -0.384 in [11]. The “glycan array binding signal (z-score)” value was 4.26 in assay [12]; 0.124 in [13]; 0.112 in [14]; -0.506 in [15]; 0.071 in [16]; 2.97 in assay [17]. The “glycan array binding signal (z-score)” value in assay [18] was 2.08; in [19], -1.09; in [20], -1.26; with GlcNAc(b1-3)GalNAc, -0.989.

Values taken from the supplement of paper PMC8728848.
